# Source: PubChem BioAssay AID720504 (National Center for Advancing Translational Sciences (NCATS), 2013)
# Protein sequences, listed by entry. Tags and fused reporters are not part of them.
# UniProt P53350, whole entry, looked up: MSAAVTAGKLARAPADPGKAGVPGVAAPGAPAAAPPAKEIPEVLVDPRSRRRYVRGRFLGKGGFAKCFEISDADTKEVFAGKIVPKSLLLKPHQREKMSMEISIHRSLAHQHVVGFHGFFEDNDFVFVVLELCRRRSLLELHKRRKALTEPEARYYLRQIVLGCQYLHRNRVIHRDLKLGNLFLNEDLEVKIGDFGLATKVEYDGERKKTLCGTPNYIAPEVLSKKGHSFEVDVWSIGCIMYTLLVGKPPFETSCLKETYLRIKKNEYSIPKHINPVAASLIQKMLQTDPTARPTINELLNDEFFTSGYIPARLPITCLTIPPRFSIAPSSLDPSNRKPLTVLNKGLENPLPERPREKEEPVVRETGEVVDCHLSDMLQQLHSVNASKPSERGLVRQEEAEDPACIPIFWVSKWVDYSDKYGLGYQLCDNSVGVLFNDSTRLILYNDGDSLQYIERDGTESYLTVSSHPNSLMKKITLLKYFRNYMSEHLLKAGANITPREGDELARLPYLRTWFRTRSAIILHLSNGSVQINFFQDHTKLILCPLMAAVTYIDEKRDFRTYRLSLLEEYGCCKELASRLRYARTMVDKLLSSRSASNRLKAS
# In all, about 360,000 compounds went through this assay and about 10,000 (2.8%) were called active. Inconclusive results, whose numbers are uncertain, are shown with a selection of clear calls. The call rests on the fitted dose curve; in most records, active means well fitted inhibition curve with a large enough effect; inconclusive means small, poorly fitted or top-dose-only effect; inactive means flat fitted curve, though single readings scatter. Where the call is inconclusive, the potency comes from a doubtful curve fit.
# Biological target: Serine/threonine-protein kinase PLK1 (Homo sapiens) (UniProt P53350)
# Test: qHTS for Inhibitors of PLK1-PDB (polo-like kinase 1 - polo-box domain): Primary Screen; further: nearly all actives have a fitted effect of over 65% in size; on max response, negative = inhibition: series mostly up to about 57 µM
# Details: Plk1 PBD binding of FITC phosphopeptide, fluorescence polarization
# On the % scale 0 is the no-effect control and ±100 the full control effect; potency means the concentration at half of the fitted maximal effect.
Structure (SMILES),Potency,"max response, negative = inhibition"
CC(C)CCNC(=O)NC(=O)CSc1ccc(S(=O)(=O)N2CCOCC2)cn1,"inconclusive: 16.8 µM [inhibitor, partial curve]",
CCCSc1cc(=O)n(-c2ccc(F)cc2)nc1C(=O)OCC,"inconclusive: 37.7 µM [inhibitor, single point]",
O=C(NC(=S)Nc1ccccc1C(=O)O)c1cncc(Br)c1,active: 9.47 µM,
C=CCN1C(=O)NC(c2ccc(OC)cc2)(C(F)(F)F)S/C1=C(\C#N)c1nnc(N2CCOCC2)n1-c1ccccc1 (stereo not given),"inconclusive: 23.8 µM [inhibitor, partial curve]",
CC1CCCN(c2ccc3nc4ccccc4c(=O)n3n2)C1 (stereo not given),"inconclusive: 23.8 µM [inhibitor, single point]",
CCOc1ccc2c(O)csc2c1,"inconclusive: 21.2 µM [inhibitor, partial curve]",
Cc1nnc(SCC2=C(C(=O)O)N3C(=O)C(NC(=O)c4cc(F)c(F)cc4Cl)C3SC2)s1 (stereo not given),,inconclusive: -33.9% [inhibitor]
CCOC(=O)C(C)Sc1nc2c(cnn2-c2ccc(C)cc2)c(=O)[nH]1 (stereo not given),"inconclusive: 29.9 µM [inhibitor, partial curve]",
COc1ccc(OC)c2c1nc1n2CCS1,,inactive: -30%
C=CCOc1ccccc1/C=c1\sc2nc(=O)c(C)nn2c1=O,,inconclusive: -31.5% [inhibitor]
CSCCNC(=O)C1(C)CCN1C(=O)CCc1ccccc1 (stereo not given),,inactive: -3.32%
O=C(C1CCN(S(=O)(=O)c2ccccc2)CC1)N1CCC1,,inactive: -0.338%
CCOC(=O)/C(=C\c1ccc(OC(F)F)cc1)C1=Nn2c(nnc2-c2ccc(Cl)cc2)SC1,"inconclusive: 10.6 µM [inhibitor, partial curve]",
Cc1ccc(C(=O)NNC(=O)CSc2n[nH]c(-c3cccnc3)n2)cc1,"inconclusive: 33.6 µM [inhibitor, partial curve]",
COc1ccc(C(CNC(=O)CSc2ccccc2F)N2CCOCC2)cc1 (stereo not given),"inconclusive: 33.6 µM [inhibitor, single point]",
O=C(Nc1cnccc1C(F)(F)F)NC1CCCCC1,,inactive: -8.06%
NS(=O)(=O)c1cccc(NC(=O)c2cccs2)c1,active: 13.4 µM,
O=C(O)c1cccc(CSc2nc(-c3ccccc3)cc(C(F)(F)F)n2)c1,"inconclusive: 26.7 µM [inhibitor, single point]",
CCCN(C(=O)COC(=O)c1nc2nccc(C)n2n1)C1CCS(=O)(=O)C1 (stereo not given),active: 23.8 µM,
Cn1c(SCC(=O)NNC(=O)Cc2ccccc2)nnc1-c1ccc(Cl)cc1,,inactive: -12.9%
Cc1cc(C)cc(S(=O)(=O)c2cnc3ccccc3n2)c1,active: 3.77 µM,
COc1cc(NC(=O)[C@H](C)NC(=O)N2CCn3c2nc2ccccc23)cc(OC)c1,,inconclusive: -1.49% [inhibitor]
O=C(Cc1ccc(NC2=NC3CS(=O)(=O)CC3S2)cc1)NCc1ccccc1Cl (stereo not given),,inactive: 6.56%
CCC1=NN2C(=N)/C(=C\c3ccc(SCc4ccco4)o3)C(=O)N=C2S1,"inconclusive: 26.7 µM [inhibitor, partial curve]",

# 3 of the compounds above, as tab-separated lines:
Structure (SMILES)	Potency	max response, negative = inhibition
Cc1cc(C)cc(S(=O)(=O)c2cnc3ccccc3n2)c1	active: 3.77 µM	
COc1cc(NC(=O)[C@H](C)NC(=O)N2CCn3c2nc2ccccc23)cc(OC)c1		inconclusive: -1.49% [inhibitor]
O=C(Cc1ccc(NC2=NC3CS(=O)(=O)CC3S2)cc1)NCc1ccccc1Cl (stereo not given)		inactive: 6.56%

# The list goes on.

Structure (SMILES),Potency,"max response, negative = inhibition"
CCn1nc(C(=O)Nc2ccc3c(c2)OCCO3)c2ccccc2c1=O,,inactive: -5.96%
COc1ccccc1-c1cc(C(F)(F)F)nc(S(=O)(=O)CCCC(=O)NC(C)C)n1,"inconclusive: 29.9 µM [inhibitor, partial curve]",
CCOc1cc(C(=S)N2CCC(O)CC2)ccc1OS(=O)(=O)c1ccc(Br)cc1,"inconclusive: 23.8 µM [inhibitor, partial curve]",
CN(C)c1ccc(NC(=O)Cc2ccccc2)c2ccccc12,,inactive: -7.76%
N=c1c(S(=O)(=O)c2ccc(Cl)cc2)cc2c(=O)n3ccccc3nc2n1Cc1ccco1,"inconclusive: 16.8 µM [inhibitor, partial curve]",
CSc1nnc(NC(=O)c2nc(S(=O)(=O)Cc3ccc(C)cc3)ncc2Cl)s1,"inconclusive: 21.2 µM [inhibitor, partial curve]",
Cc1oc(-c2cccs2)nc1CS(=O)CC(=O)NCCc1ccccc1 (stereo not given),"inconclusive: 29.9 µM [inhibitor, partial curve]",
COC(=O)c1sccc1NC(=O)CN(C)NS(=O)(=O)c1ccc([N+](=O)[O-])cc1,active: 23.8 µM,
COc1ccccc1NS(=O)(=O)c1cc(NC(=O)c2ccc(NC(C)=O)cc2)ccc1N1CCOCC1,active: 26.7 µM,
CCN(CC)CC(C)(C)C(=O)/C=C/c1ccc(/C=C/C(=O)C(C)(C)CN(CC)CC)cc1,"inconclusive: 10.6 µM [inhibitor, partial curve]",
O=[N+]([O-])c1ccc(Sc2cccc3cccnc23)c([N+](=O)[O-])c1,active: 6.7 µM,
CCOC(=O)C(=NC1CCS(=O)(=O)C1)NNc1ccccc1Cl (stereo not given),active: 26.7 µM,
CCOC(=O)c1csc(N/N=C2\CCc3ccccc32)n1,,inactive: -16.5%
CN1C(=O)C(CC(=O)NC2CCCCC2)SC1=Nc1ccccc1 (stereo not given),active: 29.9 µM,
O=C(O)COc1ccc(/C=N/NC(=O)c2ccc(-c3csc(Nc4ccc(Cl)cc4)n3)cc2)cc1,"inconclusive: 2.99 µM [inhibitor, single point]",
COc1ccc2c(c1)C(=C(C#N)C#N)C(=O)N2CCc1ccccc1,active: 2.67 µM,
CC(C)NC(=S)N/N=C/c1cc(Br)ccc1O,"inconclusive: 16.8 µM [inhibitor, partial curve]",
CCn1c(C)nc2cc(C(=O)N/N=C/c3ccc(N4CCOCC4)cc3)ccc21,"inconclusive: 37.7 µM [inhibitor, single point]",
CN(CCOc1ccccc1)CC(=O)Nc1cccc(C#N)c1,,inactive: 0.799%
CC(=O)C1=C(O)C(=O)N(C)C1c1ccccc1[N+](=O)[O-] (stereo not given),active: 26.7 µM,
O=C(NCc1n[nH]c(=S)n1-c1ccc(F)cc1)c1ccc(S(=O)(=O)N2CCOCC2)cc1,"inconclusive: 29.9 µM [inhibitor, partial curve]",
Cc1ccccc1C(=O)NC=C1C(=O)OC(C)(C)OC1=O,"inconclusive: 21.2 µM [inhibitor, partial curve]",
COc1ccccc1NC(=O)Nc1nc(CC(=O)NCc2c(F)cccc2F)cs1,,inactive: 2.92%
Brc1ccc(CSc2nnc3ccccn23)cc1,,inactive: -15.3%

Structure (SMILES),Potency,"max response, negative = inhibition"
O=C(CC1CCCC1)Nc1cc(S(=O)(=O)N2CCOCC2)ccc1O,active: 5.97 µM,
c1cncc(CNc2ccc3c(c2)OCO3)c1,,inactive: -14%
O=C(c1cccc(F)c1)n1nnc2ccccc21,"inconclusive: 4.74 µM [inhibitor, full curve]",
CCOC(=O)N1CCN(c2cc(NCCC(=O)O)c3c4c(onc24)-c2ccccc2C3=O)CC1,,inactive: 21.5%
CCCNC(=O)c1ccc2c(=O)n3c(-c4ccc(C)cc4)csc3nc2c1,"inconclusive: 29.9 µM [inhibitor, partial curve]",
COc1cccc(-c2cnc(C(O)c3ccc(C(C)(C)C)cc3)[nH]2)c1 (stereo not given),,inactive: 8.26%
Cc1ccc([N+](=O)[O-])cc1S(=O)(=O)N1CCC(C)CC1,active: 37.7 µM,
CCc1cccc(OCC(=O)Nc2ccc(C(=O)O)cc2NC(=O)COc2cccc(CC)c2)c1,"inconclusive: 21.2 µM [inhibitor, partial curve]",
CCOC(=O)/C(C#N)=C1\CCCN1CC(N)=S,active: 21.2 µM,
O=C(CSc1cccc2cccnc12)Nc1ccc(S(=O)(=O)N2CCOCC2)cc1,"inconclusive: 18.9 µM [inhibitor, partial curve]",
Cc1c(NS(=O)(=O)c2ccc(Cl)c(C(=O)OCC(=O)NCc3ccco3)c2)c(=O)n(-c2ccccc2)n1C,"inconclusive: 26.7 µM [inhibitor, partial curve]",
Cc1cccc(C)c1NC(=O)C(c1ccccc1)n1c(=O)c(-c2ccco2)nc2ccccc21 (stereo not given),"inconclusive: 26.7 µM [inhibitor, partial curve]",
CC(C)(C)OC(=O)C[C@H]1C/C=C\C[C@H](CC(=O)N(CCO)Cc2ccccc2)C(=O)N[C@@H](Cc2ccccc2)COC1=O,,inactive: -7.05%
O=C1/C(=C\c2ccc(-c3ccccc3Cl)o2)SC(=S)N1CC1CCCO1 (stereo not given),"inconclusive: 26.7 µM [inhibitor, partial curve]",
CCCCCCNC(=O)N[C@@H](C(=O)NCCC[C@H]1CN2C(=NC[C@@H]2Cc2ccccc2)N1CCc1cccc(OC)c1)C(C)C,active: 1.5 µM,
Oc1c(Br)cc(Br)cc1C=NCc1ccccc1,"inconclusive: 26.7 µM [inhibitor, partial curve]",
Cc1oc(-c2ccccc2)nc1CS(=O)CC(=O)NC1CCCCCC1 (stereo not given),"inconclusive: 26.7 µM [inhibitor, partial curve]",
CCN(CC)CCCN1C=C2C(=O)C(C)(OC(=O)CCC(=O)OC)C(=O)C(Br)=C2C=C1c1ccc(OC)cc1 (stereo not given),,inconclusive: -33.7% [inhibitor]
CCc1ccc(OCCNc2cc(N3CCNC(C)C3)ccc2[N+](=O)[O-])cc1 (stereo not given),,inactive: 5.03%
O=c1[nH]c(=O)n(-c2ccccc2)c2c1C(C(F)(F)F)(C(F)(F)F)N=C(C1CCCCC1)N2,"inconclusive: 29.9 µM [inhibitor, partial curve]",
Cc1cc2cc(CN(CCCN3CCOCC3)C(=O)NC3CCCCC3)c(=O)[nH]c2cc1C,,inactive: -2.36%
O=C(O)c1cc(-c2ccco2)nn1-c1cccc(Cl)c1,"inconclusive: 23.8 µM [inhibitor, single point]",
